Reference: the M2OR odorant receptor database
This is one part of the list. The calls were merged from several studies; some rest on single wells.

Experiments:
Details in all cases: stereoisomer not certain
O10J3 = test system: T1, O10J3
T1 sequence (whole entry): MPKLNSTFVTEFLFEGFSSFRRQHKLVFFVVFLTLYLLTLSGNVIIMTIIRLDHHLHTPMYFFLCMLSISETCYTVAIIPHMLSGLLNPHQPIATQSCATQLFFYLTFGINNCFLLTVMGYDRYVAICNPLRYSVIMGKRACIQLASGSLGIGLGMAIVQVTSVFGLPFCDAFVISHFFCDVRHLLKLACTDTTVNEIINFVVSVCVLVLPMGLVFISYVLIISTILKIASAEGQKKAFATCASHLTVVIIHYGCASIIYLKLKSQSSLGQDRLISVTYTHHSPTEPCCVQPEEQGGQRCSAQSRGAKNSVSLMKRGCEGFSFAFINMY
How it was run: (§1)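 Whether a receptor–molecule pair is responsive (active) rests on the original authors' judgment that its measured signal was statistically different from baseline. Pairs without that judgment are non-responsive (inactive). Sources used varied assay methods, commonly transient luciferase assays in mammalian cell lines.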

O10J5 = test system: T2, O10J5
T2 sequence (whole entry): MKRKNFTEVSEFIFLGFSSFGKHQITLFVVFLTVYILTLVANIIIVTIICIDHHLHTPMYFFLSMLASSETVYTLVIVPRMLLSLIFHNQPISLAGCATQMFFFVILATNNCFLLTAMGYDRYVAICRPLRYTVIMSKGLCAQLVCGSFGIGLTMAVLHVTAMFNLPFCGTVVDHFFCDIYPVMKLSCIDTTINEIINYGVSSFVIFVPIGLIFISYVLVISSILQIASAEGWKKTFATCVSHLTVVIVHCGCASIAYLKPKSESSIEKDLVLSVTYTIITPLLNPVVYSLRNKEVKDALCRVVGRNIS
How it was run: as §1

O10P1 = test system: T3, O10P1
T3 sequence (whole entry): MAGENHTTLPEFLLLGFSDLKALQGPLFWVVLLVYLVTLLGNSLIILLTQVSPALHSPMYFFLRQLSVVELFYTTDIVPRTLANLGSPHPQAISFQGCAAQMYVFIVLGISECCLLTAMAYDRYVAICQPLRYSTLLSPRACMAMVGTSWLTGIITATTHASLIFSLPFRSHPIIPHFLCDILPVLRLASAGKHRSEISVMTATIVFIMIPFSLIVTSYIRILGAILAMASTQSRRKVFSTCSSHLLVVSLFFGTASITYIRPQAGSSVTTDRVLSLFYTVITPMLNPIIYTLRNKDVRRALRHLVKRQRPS
How it was run: as §1

O10Q1 = test system: T4, O10Q1
T4 sequence (whole entry): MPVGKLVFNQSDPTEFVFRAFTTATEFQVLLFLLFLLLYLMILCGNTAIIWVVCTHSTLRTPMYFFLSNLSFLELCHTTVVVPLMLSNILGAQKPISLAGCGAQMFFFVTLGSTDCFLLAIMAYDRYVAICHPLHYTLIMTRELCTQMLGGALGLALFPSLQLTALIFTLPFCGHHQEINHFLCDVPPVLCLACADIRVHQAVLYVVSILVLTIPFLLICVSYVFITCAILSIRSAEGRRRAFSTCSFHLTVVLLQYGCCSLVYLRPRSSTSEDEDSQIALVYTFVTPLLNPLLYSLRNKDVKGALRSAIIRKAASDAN
How it was run: as §1

O10R2 [1] = test system: T5, O10R2
T5 sequence (whole entry): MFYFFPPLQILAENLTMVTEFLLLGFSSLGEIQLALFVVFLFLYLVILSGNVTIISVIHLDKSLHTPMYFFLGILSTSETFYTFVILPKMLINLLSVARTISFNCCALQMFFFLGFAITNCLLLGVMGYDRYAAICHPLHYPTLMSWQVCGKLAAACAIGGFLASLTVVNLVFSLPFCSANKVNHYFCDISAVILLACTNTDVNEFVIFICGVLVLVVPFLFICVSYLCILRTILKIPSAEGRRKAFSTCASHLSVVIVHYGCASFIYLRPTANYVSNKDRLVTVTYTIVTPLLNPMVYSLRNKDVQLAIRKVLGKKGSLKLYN
How it was run: as §1

O10R2 [2] = test system: T6, O10R2; remark: listed apart in the source
T6 sequence (whole entry): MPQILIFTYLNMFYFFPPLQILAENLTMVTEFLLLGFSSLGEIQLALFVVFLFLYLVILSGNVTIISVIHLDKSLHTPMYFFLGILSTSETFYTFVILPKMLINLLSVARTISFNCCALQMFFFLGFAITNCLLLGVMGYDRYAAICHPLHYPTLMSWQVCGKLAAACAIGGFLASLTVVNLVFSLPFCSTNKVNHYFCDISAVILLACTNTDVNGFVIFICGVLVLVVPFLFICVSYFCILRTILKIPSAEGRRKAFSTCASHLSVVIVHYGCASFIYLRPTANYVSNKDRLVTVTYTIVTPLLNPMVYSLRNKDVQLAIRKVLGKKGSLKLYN
How it was run: as §1

O10V1 = test system: T7, O10V1
T7 sequence (whole entry): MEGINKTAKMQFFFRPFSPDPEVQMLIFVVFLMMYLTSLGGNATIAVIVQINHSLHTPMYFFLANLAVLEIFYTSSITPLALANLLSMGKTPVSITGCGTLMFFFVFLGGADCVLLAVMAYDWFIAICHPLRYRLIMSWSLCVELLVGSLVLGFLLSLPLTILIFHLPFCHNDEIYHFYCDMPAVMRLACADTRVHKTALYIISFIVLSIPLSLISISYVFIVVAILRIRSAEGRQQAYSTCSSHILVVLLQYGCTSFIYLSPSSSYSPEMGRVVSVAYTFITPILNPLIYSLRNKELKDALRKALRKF
How it was run: as §1

O10W1 = test system: T8, O10W1
T8 sequence (whole entry): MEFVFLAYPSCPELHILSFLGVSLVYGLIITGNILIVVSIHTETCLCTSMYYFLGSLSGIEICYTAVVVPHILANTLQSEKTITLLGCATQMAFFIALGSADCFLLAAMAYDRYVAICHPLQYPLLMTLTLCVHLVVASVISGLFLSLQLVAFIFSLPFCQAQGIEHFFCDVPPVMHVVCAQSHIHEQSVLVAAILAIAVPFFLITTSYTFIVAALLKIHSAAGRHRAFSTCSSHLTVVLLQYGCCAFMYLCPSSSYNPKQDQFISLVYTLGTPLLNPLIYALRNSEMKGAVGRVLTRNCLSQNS
How it was run: as §1

O10X1 = test system: T9, O10X1
T9 sequence (whole entry): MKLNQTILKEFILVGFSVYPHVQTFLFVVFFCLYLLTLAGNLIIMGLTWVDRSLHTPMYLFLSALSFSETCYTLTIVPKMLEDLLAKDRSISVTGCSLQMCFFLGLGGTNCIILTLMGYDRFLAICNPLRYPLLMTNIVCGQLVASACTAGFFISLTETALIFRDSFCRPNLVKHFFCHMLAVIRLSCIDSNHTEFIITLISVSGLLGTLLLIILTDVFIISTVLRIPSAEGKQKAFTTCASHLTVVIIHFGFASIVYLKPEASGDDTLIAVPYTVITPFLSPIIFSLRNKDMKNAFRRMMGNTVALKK
How it was run: as §1

O11G2 = test system: T10, O11G2
T10 sequence (whole entry): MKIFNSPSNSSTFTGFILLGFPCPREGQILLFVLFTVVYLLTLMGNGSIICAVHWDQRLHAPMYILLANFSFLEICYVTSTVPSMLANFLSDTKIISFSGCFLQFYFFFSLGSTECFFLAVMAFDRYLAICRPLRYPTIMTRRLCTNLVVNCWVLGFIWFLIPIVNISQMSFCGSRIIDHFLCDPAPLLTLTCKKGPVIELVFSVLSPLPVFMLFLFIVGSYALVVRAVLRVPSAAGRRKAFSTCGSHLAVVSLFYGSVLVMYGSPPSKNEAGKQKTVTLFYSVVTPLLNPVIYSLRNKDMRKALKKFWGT
How it was run: as §1

Measured: odorant receptor agonist call;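 also: active if original authors judged signal statistically different from baseline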

CC12CCC(CC1)C(C)(C)O2
active: O10J3
inactive: all other assays above

CCCCCCCC=CC=O
active: O10J5 | O11G2
inactive: all other assays above

CC(C)CCC(=O)O
inactive: all assays above

c1cnccn1
inactive: all assays above

CCCCCCCCCC=O
inactive: all assays above

CCCCCCOC(=O)CCC
inactive: all assays above

CCCCO
inactive: all assays above

CC1=CCC(C(C)(C)O)CC1 (stereo not given)
inactive: all assays above

CC12C=CCC1C1CCC3=CC(=O)CCC3(C)C1CC2 (stereo not given)
inactive: all assays above

CCCCCCCCCCC=O
inactive: all assays above

CC(C)C(=O)O
inactive: all assays above

CC1CCC(C(C)C)C(O)C1 (stereo not given)
active: O10V1 | O10X1
inactive: all other assays above

COC(=O)c1ccccc1O
inactive: all assays above

CC(C)CC(=O)O
inactive: all assays above

CC(C)(C)c1ccc(CCC=O)cc1
inactive: all assays above

O=C1CCCCCCCCCCCC(=O)OCCO1
inactive: all assays above

CCCCCOC(C)=O
inactive: all assays above

CC(=O)C(C)=O
inactive: all assays above

CC(C)=CCCC(C)=CC=O
inactive: all assays above

CCC1(O)C2(C)CCC(C2)C1(C)C (stereo not given)
inactive: all assays above

C=CCc1ccc(OC(C)=O)c(OC)c1
active: O10J3 | O10Q1 | O11G2
inactive: all other assays above

CCCCCCCC=O
inactive: all assays above

CC12CCC(C1)C(C)(C)C2=O (stereo not given)
inactive: all assays above

CC(=O)OCC=C(C)CCC=C(C)C
active: O10Q1 | O11G2
inactive: all other assays above

C=CC(C)(O)CCC=C(C)C (stereo not given)
inactive: all assays above

CC12C=CCC1C1CCC3CC(=O)CCC3(C)C1CC2 (stereo not given)
active: O10Q1 | O10W1
inactive: all other assays above

CC1=NC(C)SC1C (stereo not given)
active: O10P1
not listed: O10J3 | O11G2
inactive: all other assays above

CC(C)C=O
inactive: all assays above

CCCC(=O)O
active: O10J3
inactive: all other assays above

CC1COCc2cc3c(cc21)C(C)(C)C(C)C3(C)C (stereo not given)
inactive: O10J3 | O10V1
active: all other assays above

CC=Cc1ccc(O)c(OC)c1
inactive: O10J5 | O10Q1 | O10R2 [1] | O10R2 [2] | O10X1
active: all other assays above

CC(=O)OC(C)(C)C1CC=C(C)CC1 (stereo not given)
inactive: all assays above

O=C1CCCCC1
not listed: O10J3 | O11G2
inactive: all other assays above

CCCCCC(=O)O
active: O10J3
inactive: all other assays above

C=CCc1ccc(OC)c(OC)c1
inactive: all assays above

O=C1CCCCCCCCCCCCCCO1
inactive: all assays above

c1ccc(Oc2ccccc2)cc1
inactive: all assays above

COc1cc(C=O)ccc1O
active: O10J3
inactive: all other assays above

CC(=O)c1ccccc1
not listed: O10J3 | O11G2
inactive: all other assays above

CCC=CCCO
inactive: all assays above

C=C(C)C1CCC2=CC(=O)CC(C)C2(C)C1 (stereo not given)
active: O10J3 | O11G2

CCCCCC(C)=O
active: O10P1
not listed: O10J3 | O11G2
inactive: all other assays above

COc1ccccc1O
inactive: all assays above

CC(=O)OC1CC2CCC1(C)C2(C)C (stereo not given)
inactive: all assays above

CCCCCCCOC(C)=O
inactive: all assays above

COC(=O)c1ccccc1
not listed: O10J3 | O11G2
inactive: all other assays above

CCCCCCCCOC(C)=O
inactive: all assays above

O=CCc1ccccc1
active: O11G2
inactive: all other assays above

C=CCSCC=C
inactive: all assays above

COc1cc(C)ccc1O
inactive: all assays above

CC(C)(O)CCCC1=CCC(C=O)CC1 (stereo not given)
inactive: O10J3 | O11G2
active: O10J5
